Reference: PMC11982220
No constants are given. Whether binding was seen depends on the method and setting. Binding seen in cells or lysates may run through a third protein. Some entries that bind do so weakly or less than the wild type.

The chains behind the UniProt entries cited, without tags or fusion partners.
UniProt Q9Z2X8: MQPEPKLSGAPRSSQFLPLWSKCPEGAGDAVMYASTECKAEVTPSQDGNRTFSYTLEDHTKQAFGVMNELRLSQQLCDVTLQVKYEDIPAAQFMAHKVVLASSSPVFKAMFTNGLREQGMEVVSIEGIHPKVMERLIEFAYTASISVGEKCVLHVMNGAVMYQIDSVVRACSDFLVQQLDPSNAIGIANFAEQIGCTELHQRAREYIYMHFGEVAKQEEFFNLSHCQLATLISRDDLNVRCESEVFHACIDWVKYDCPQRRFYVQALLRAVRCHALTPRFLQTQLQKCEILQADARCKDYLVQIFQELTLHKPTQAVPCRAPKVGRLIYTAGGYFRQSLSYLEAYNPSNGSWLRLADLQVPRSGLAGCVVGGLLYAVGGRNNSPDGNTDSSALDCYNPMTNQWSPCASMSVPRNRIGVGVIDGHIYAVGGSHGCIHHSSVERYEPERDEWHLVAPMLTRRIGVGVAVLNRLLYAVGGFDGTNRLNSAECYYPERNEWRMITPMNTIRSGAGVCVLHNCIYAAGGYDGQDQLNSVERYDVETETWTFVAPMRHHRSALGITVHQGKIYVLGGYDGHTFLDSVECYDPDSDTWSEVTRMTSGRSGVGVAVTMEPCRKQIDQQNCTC

What was measured:
[1] = target: Kelch-like ECH-related protein 1 (Keap1) (mouse (endogenous in primary mouse hepatocytes)) (UniProt Q9Z2X8); assay: co-IP; primary mouse hepatocytes treated with FFA and/or Elane, or hepatocytes from Elane+/+ and Elane-/- mice after modelling; NP-40 lysis buffer with protease inhibitors; Keap1 or P62 antibody or control IgG overnight at 4 °C, protein A/G beads 3 h at 4 °C; Western blotting
[2] = target: P62 (mouse (endogenous in primary mouse hepatocytes)) (UniProt Q64337); assay: as above

binding [1]: binds
binding [2]: binds
B1: Active neutrophil elastase (Elane) (enzyme, UniProt Q3UP87 27-265)
chain: SEIVGGRPARPHAWPFMASLQRRGGHFCGATLIARNFVMSAAHCVNGLNFRSVQVVLGAHDLRRQERTRQTFSVQRIFENGFDPSQLLNDIVIIQLNGSATINANVQVAQLPAQGQGVGDRTPCLAMGWGRLGTNRPSPSVLQELNVTVVTNMCRRRVNVCTLVPRRQAGICFGDSGGPLVCNNLVQGIDSFIRGGCGSGLYPDAFAPVAEFADWINSIIRSHNDHLLTHPKDREGRTN
